Reference: PubChem BioAssay AID901 (National Center for Advancing Translational Sciences (NCATS), 2007)
Some of the results follow. Shown are side measurements of this screen, not its main read-out; they come without a call. The list favours compounds with an active or inconclusive main result. Words in brackets tell the shape of the fitted curve; partial curves, single points and poor fits give uncertain potencies.

Assay: qHTS Assay for Identifying the Cell-Membrane Permeable IMPase Inhibitors
Conditions: CHO-M1 cells, IP1 accumulation, HTRF TR-FRET ratio; measured here: donor channel 620 nm AC50
In the case of CSc1[nH]c(=O)c(C(=O)O)cc1C#N, the AC50 is reported as 0.0126 µM [falling, full curve, poor fit].
For Cc1ccc(N2C(=O)c3ccccc3C2=O)cc1C, the AC50 was 0.02 µM [rising, full curve, poor fit].
With O=C(CSCc1ccc(Cl)cc1)Nc1ccccc1C(=O)N1CCOCC1 the AC50 was 3.16 µM [rising, full curve, poor fit].
With CCOC(=O)c1c(NC(=O)COc2ccc(C)cc2C(C)(C)C)sc2c1CCC(C)C2 (stereo not drawn) the AC50 was 1.26 µM [falling, full curve, poor fit].
In the case of NS(=O)(=O)c1ccc(NC=C2C(=O)OC3(CCCCC3)OC2=O)cc1, the AC50 is reported as 2.51 µM [falling, single point].
For CCOC(=O)c1ccc(NC(=O)CSc2nnc(C)n2-c2ccccc2)cc1, the AC50 was 3.16 µM [falling, partial curve, poor fit].
In the case of Cc1cccc(NC(=O)NCc2ccc3c(c2)cc(C)n3C)c1, the AC50 is reported as 35.5 µM [rising, single point].
In the case of COC(=O)c1cc(CSc2nnc(NC3CCCCC3)s2)oc1C, the AC50 is reported as 3.98 µM [falling, single point].
For Cc1ccc(C(=O)N2CCN(c3cc4c(cc3[N+](=O)[O-])n(C)c(=O)n4C)CC2)cc1, the AC50 was 0.398 µM [rising, partial curve, poor fit].
For COc1cc2c3nnc(-c4ccc(F)cc4)c-3cn(Cc3ccccc3)c2cc1OC, the AC50 was 0.224 µM [falling, full curve].
With COC(=O)c1ccccc1NC(=O)c1cc2nc(C3CC3)cc(C(F)(F)F)n2n1 the AC50 was 6.31 µM [falling, single point].
With COc1cccc(COc2ccccc2C2Nc3ccc(Br)cc3C(=O)N2NC(=O)c2ccncc2)c1 (stereo not drawn) the AC50 was 5.01 µM [falling, single point].
For COc1cccc(C(=O)Nc2ccc(NC(C)=O)cn2)c1, the AC50 was 31.6 µM [falling, single point].
For NC(=O)Cc1c[nH]c2cccc(O)c12, the AC50 was 31.6 µM [falling, single point].
For COC(=O)CCc1c(C)c(C(=O)c2ccco2)c2ccccn12, the AC50 was 15.8 µM [rising, single point].
For Cc1ccc2nc(SCC(=O)NCc3cccs3)c(C#N)cc2c1, the AC50 was 5.01 µM [rising, full curve].
For COc1ccc2[nH]c(=O)c(CNc3cccc(C)c3)cc2c1, the AC50 was 1.58 µM [falling, partial curve, poor fit].
For CC1CN(c2nc3c(c(=O)n(Cc4ccc(Cl)c(Cl)c4)c(=O)n3C)n2C)CC(C)O1 (stereo not drawn), the AC50 was 1 µM [rising, partial curve].
With Fc1ccc(-c2nnc3sc(C4COc5ccccc5O4)nn23)cc1 (stereo not drawn) the AC50 was 5.01 µM [rising, partial curve, poor fit].
For CCOC(=O)c1c(C)[nH]sc1=S, the AC50 was 15.8 µM [rising, partial curve].
With CCOc1cccc(NC(=O)CSc2nc(C)c3c(c2C#N)CCCC3)c1 the AC50 was 3.16 µM [rising, single point].
With Cc1nnc2ccc(N3CCCC3)nn12 the AC50 was 10 µM [rising, partial curve].
In the case of CCCNC(=O)c1cc(-c2ccco2)on1, the AC50 is reported as 0.0501 µM [rising, full curve, poor fit].
For O=C(NCCCN1CCOCC1)c1ccc(CS(=O)(=O)c2cccc(C(F)(F)F)c2)o1, the AC50 was 6.31 µM [falling, single point].
For O=C(Oc1cncc(Cl)c1)c1ccco1, the AC50 was 31.6 µM [falling, single point].
With Cc1ccccc1Nc1c(-c2ccc(N3CCOCC3)cc2)nc2ncccn12 the AC50 was 35.5 µM [rising, single point].
For COc1ccc(OC)c(S(=O)(=O)Nc2ccc(F)cc2)c1, the AC50 was 5.01 µM [falling, single point].
With Cc1nn(-c2ccccc2)c2[nH]c(=O)c(CNCc3ccc4c(c3)OCO4)cc12 the AC50 was 0.794 µM [falling, partial curve, poor fit].
With Cc1ccc2[nH]c(=O)c(C(c3nnnn3CC3CCCO3)N3CCc4ccccc4C3)cc2c1 (stereo not drawn) the AC50 was 3.16 µM [falling, single point].
With Cc1ccc(-c2nc3ccccc3o2)cc1NC(=S)NC(=O)c1cc2ccccc2o1 the AC50 was 31.6 µM [rising, single point].
For CCCCN(CCCC)C(=O)CN(C)S(=O)(=O)c1ccc2c(c1)n(C)c(=O)c(=O)n2C, the AC50 was 5.62 µM [rising, single point].
With O=C(NCc1cccnc1)C1CCN(S(=O)(=O)N2CCOCC2)CC1 the AC50 was 0.0316 µM [rising, full curve, poor fit].
In the case of CC(C)c1ccc(C2N=C(N)Nc3nc4ccccc4n32)cc1 (stereo not drawn), the AC50 is reported as 35.5 µM [rising, single point].
For COc1cc(C(=O)NCC2CCCO2)cc(OC)c1OC (stereo not drawn), the AC50 was 2.51 µM [falling, single point].
With O=C(NCc1cccc(Cl)c1)c1cnccn1 the AC50 was 5.62 µM [falling, single point].
For CCC(=O)Nc1ccc(-c2nnc3c4ccccc4c(C)nn23)cc1, the AC50 was 35.5 µM [rising, single point].
For CCN(CC)S(=O)(=O)C1CCS(=O)(=O)C1 (stereo not drawn), the AC50 was 20 µM [falling, partial curve, poor fit].
In the case of CN(C)c1cc(O)c(C(=S)Nc2ccccc2)c(N(C)C)c1, the AC50 is reported as 0.501 µM [rising, single point].
With Cc1cc(C)n(CCOC(=O)c2sc3ccccc3c2Cl)n1 the AC50 was 5.01 µM [rising, single point].
For COC(=O)c1nnn(-c2ccccc2)c1N, the AC50 was 0.158 µM [rising, full curve].
With c1ccc2[nH]c(CSc3ncnc4c3oc3ccccc34)nc2c1 the AC50 was 15.8 µM [rising, partial curve, poor fit].
For Cn1nnnc1SCCNCc1ccc(Cl)cc1, the AC50 was 3.98 µM [falling, partial curve, poor fit].
With Cc1cc(C)c(C)c(Cn2c(CO)nc3ccccc32)c1C the AC50 was 1 µM [falling, full curve].
In the case of O=C(Cc1ccc(-n2cccc2)cc1)NC1CCCCCC1, the AC50 is reported as 0.355 µM [falling, partial curve].
For CCOC(=O)CSc1nc(N)c(C#N)c(-c2ccc(OCC)cc2)c1C#N, the AC50 was 31.6 µM [rising, single point].
In the case of COc1cc(Br)c(/C=C(\C#N)c2nc3ccccc3[nH]2)cc1OC, the AC50 is reported as 0.251 µM [falling, full curve, poor fit].
With Cc1ccc(C)c(OCc2nc(-c3cccnc3)no2)c1 the AC50 was 3.16 µM [rising, partial curve].
With CC(C)c1ccc(NC(=O)c2csnn2)cc1 the AC50 was 10 µM [falling, partial curve, poor fit].
With COc1ccc(-n2nc3cc(C)c(NC(=O)C(C)C)cc3n2)cc1 the AC50 was 5.01 µM [rising, single point].
For O=C(O)c1cccc(-n2nnnc2SCc2ccccn2)c1, the AC50 was 0.126 µM [falling, full curve, poor fit].
For CC(Oc1ccccc1)C(=O)Nc1ccc(S(=O)(=O)N2CCOCC2)cc1 (stereo not drawn), the AC50 was 35.5 µM [falling, single point].
In the case of COc1ccc(-n2c(=O)cc(N3CCOCC3)[nH]c2=O)cc1, the AC50 is reported as 0.01 µM [rising, full curve, poor fit].
With O=c1nc2n(c3c1oc1ccccc13)Cc1ccccc1-2 the AC50 was 15.8 µM [rising, single point].
For CCCCC(=Nc1ccc(N)cc1)C1=C(O)C(C(=O)OC)C(C)(C)CC1=O (stereo not drawn), the AC50 was 12.6 µM [falling, partial curve].
In the case of Cc1nc(NC(=O)c2ccccc2)sc1-c1csc(Nc2cccc(Cl)c2)n1, the AC50 is reported as 1.26 µM [falling, full curve, poor fit].
For O=c1c2ccccc2nnn1Cc1ccccn1, the AC50 was 1.58 µM [falling, partial curve].
In the case of CCOc1ccc(Nc2cc(C)nc(-n3nc(C)cc3C)n2)cc1, the AC50 is reported as 3.16 µM [falling, single point].
With Cc1nn(Cc2ccc(C(=O)Nc3nccs3)cc2)c(C)c1Cl the AC50 was 3.16 µM [rising, partial curve].
For Cc1ccc(S(=O)(=O)NCC(=O)NC2CCCC2)cc1, the AC50 was 0.398 µM [rising, full curve, poor fit].
For COc1ccc(C(=O)/C=C/Nc2ccc(NC(C)=O)cc2)cc1OC, the AC50 was 3.98 µM [falling, full curve, poor fit].
For Cc1nn(-c2ccccc2)c(C)c1C(=O)OCC(=O)NC(=O)NC1CCCC1, the AC50 was 3.98 µM [rising, single point].
For O=C(Nc1ccc(Cl)cc1)Nc1ccc(N2CCOCC2)cc1, the AC50 was 0.0178 µM [falling, full curve, poor fit].
In the case of Cc1cc2c(cc1C)C(=O)NC(C)(C)C2, the AC50 is reported as 35.5 µM [falling, single point].
With CCOC(=O)c1cnc2ccc(OCC)cc2c1N1CCN(C)CC1 the AC50 was 0.0316 µM [rising, full curve, poor fit].
With CCOc1ccc2nc(SCC(=O)N(C)C3CCS(=O)(=O)C3)[nH]c2c1 (stereo not drawn) the AC50 was 0.2 µM [rising, full curve, poor fit].
With CCCCn1nnc(NC(=O)c2sc3cc(Cl)ccc3c2Cl)n1 the AC50 was 12.6 µM [rising, partial curve].
With CCCCn1c(NCc2ccc(N(C)C)cc2)nc2ccccc21 the AC50 was 0.158 µM [falling, full curve, poor fit].
With CN1CCN(C(=O)c2ccc3c(c2)NC(=O)C(C)(C)O3)CC1 the AC50 was 6.31 µM [falling, single point].
